{"source": "PubChem BioAssay AID1224826 | NIAID, 2016", "purpose": "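Knock-downs that raise or lower Tnf reporter signal after endotoxin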 (primary screen)", "system": "RAW264.7 G9 macrophages from mouse bearing reporters for p65 (GFP) and the Tnf promoter (mCherry)", "reagent": "siRNA pool against mouse genes, 100 nM", "timing": "16 h of LPS stimulation, after 2 days of siRNA transfection", "conditions": "bacterial lipopolysaccharide (Salmonella minnesota R595), 10 ng/ml", "detection": "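Nuclear mCherry signal of the Tnf promoter reporter measured by imaging after background removal, scaled to each plate median and turned into robust z-scores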", "direction": "Tnf reporter robust z-score: higher = stronger Tnf promoter reporter signal after LPS", "rule for the call": "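a well counts as active at a score of -1.3 or below (Tlr4 knock-down control median) or above 3 (raised signal); controls and wells holding fewer than 50 cells are excluded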", "meaning of the calls": "active = Tnf reporter clearly lowered or raised; inactive = no clear change in Tnf reporter", "note": "The whole screen tested about 17,000 reagents; below is a part drawn at random. Of all reagents, about 1,110 (6.6%) were called active. 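Active means lowered or raised reporter signal; replicate intensities are raw and not normalised per plate.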 Unmarked entries are inactive. Reagents against one gene are numbered here. Further read-outs or replicates are left out here."}
{"gene": "Clec14a", "reagent": 1, "Tnf reporter robust z-score": 1.52, "fewer than 50 cells in well": "enough cells in well"}
{"gene": "Gabarapl1", "reagent": 1, "Tnf reporter robust z-score": -0.93, "fewer than 50 cells in well": "enough cells in well"}
{"gene": "Mcam", "reagent": 1, "Tnf reporter robust z-score": 0, "fewer than 50 cells in well": "enough cells in well"}
{"gene": "Nudt9", "reagent": 1, "Tnf reporter robust z-score": -0.53, "fewer than 50 cells in well": "enough cells in well"}
{"gene": "Gpx1", "reagent": 1, "Tnf reporter robust z-score": 0.64, "fewer than 50 cells in well": "enough cells in well"}
{"gene": "Cyct", "reagent": 1, "Tnf reporter robust z-score": 2.12, "fewer than 50 cells in well": "enough cells in well"}
{"gene": "Fhl5", "reagent": 1, "Tnf reporter robust z-score": 0.18, "fewer than 50 cells in well": "enough cells in well"}
{"gene": "Gabbr1", "reagent": 1, "Tnf reporter robust z-score": 0.42, "fewer than 50 cells in well": "enough cells in well"}
{"gene": "Stx18", "reagent": 1, "fewer than 50 cells in well": "fewer than 50 cells per well; well left out of calls"}
{"gene": "Fam177a", "reagent": 1, "Tnf reporter robust z-score": "3.95 (active)", "fewer than 50 cells in well": "enough cells in well"}
{"gene": "Dab1", "reagent": 1, "Tnf reporter robust z-score": -0.59, "fewer than 50 cells in well": "enough cells in well"}
{"gene": "Dab1", "reagent": 2, "Tnf reporter robust z-score": 0.85, "fewer than 50 cells in well": "enough cells in well"}
{"gene": "Stk17b", "reagent": 1, "Tnf reporter robust z-score": 1.39, "fewer than 50 cells in well": "enough cells in well"}
{"gene": "Or2z9", "reagent": 1, "Tnf reporter robust z-score": "-2.04 (active)", "fewer than 50 cells in well": "enough cells in well"}
{"gene": "Ccdc77", "reagent": 1, "Tnf reporter robust z-score": -0.72, "fewer than 50 cells in well": "enough cells in well"}
{"gene": "Poli", "reagent": 1, "Tnf reporter robust z-score": "-1.36 (active)", "fewer than 50 cells in well": "enough cells in well"}
{"gene": "Gstcd", "reagent": 1, "Tnf reporter robust z-score": 1.42, "fewer than 50 cells in well": "enough cells in well"}
{"gene": "Atp5f1b", "reagent": 1, "Tnf reporter robust z-score": 1.8, "fewer than 50 cells in well": "enough cells in well"}
{"gene": "Glycam1", "reagent": 1, "Tnf reporter robust z-score": "-1.74 (active)", "fewer than 50 cells in well": "enough cells in well"}
{"gene": "Armh4", "reagent": 1, "fewer than 50 cells in well": "fewer than 50 cells per well; well left out of calls"}
{"gene": "Tap1", "reagent": 1, "Tnf reporter robust z-score": -0.76, "fewer than 50 cells in well": "enough cells in well"}

Entries listed so far whose target name begins with F or f:
{"gene": "Fhl5", "reagent": 1, "Tnf reporter robust z-score": 0.18, "fewer than 50 cells in well": "enough cells in well"}
{"gene": "Fam177a", "reagent": 1, "Tnf reporter robust z-score": "3.95 (active)", "fewer than 50 cells in well": "enough cells in well"}
